Measured values: the supplement of paper PMC10849652
The list shows a part of the results.

The chains behind the UniProt entries cited, without tags or fusion partners. Where a name states a change or a piece, a line headed by the entry shows the natural chain unless it says otherwise.
UniProt Q96IC2: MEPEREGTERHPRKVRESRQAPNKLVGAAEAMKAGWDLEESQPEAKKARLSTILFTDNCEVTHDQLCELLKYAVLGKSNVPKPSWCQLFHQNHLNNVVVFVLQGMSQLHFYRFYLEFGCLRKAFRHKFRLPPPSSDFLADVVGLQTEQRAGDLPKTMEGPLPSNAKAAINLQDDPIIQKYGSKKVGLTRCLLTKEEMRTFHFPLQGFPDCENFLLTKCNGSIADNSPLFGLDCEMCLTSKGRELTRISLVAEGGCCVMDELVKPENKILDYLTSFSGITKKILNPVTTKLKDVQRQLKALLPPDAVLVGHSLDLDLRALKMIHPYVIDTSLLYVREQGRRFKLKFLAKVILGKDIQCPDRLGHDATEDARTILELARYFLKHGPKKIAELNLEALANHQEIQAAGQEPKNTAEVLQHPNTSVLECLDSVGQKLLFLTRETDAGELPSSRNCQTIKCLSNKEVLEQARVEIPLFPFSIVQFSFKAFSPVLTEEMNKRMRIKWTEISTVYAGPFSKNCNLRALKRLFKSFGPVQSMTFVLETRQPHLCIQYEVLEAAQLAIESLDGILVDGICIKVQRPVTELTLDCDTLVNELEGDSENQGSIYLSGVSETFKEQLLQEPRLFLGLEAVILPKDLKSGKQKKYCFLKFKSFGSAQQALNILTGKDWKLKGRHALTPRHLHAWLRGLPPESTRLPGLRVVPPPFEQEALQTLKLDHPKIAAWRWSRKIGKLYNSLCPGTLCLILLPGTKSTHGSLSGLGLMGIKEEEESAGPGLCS
UniProt Q7Z6E9: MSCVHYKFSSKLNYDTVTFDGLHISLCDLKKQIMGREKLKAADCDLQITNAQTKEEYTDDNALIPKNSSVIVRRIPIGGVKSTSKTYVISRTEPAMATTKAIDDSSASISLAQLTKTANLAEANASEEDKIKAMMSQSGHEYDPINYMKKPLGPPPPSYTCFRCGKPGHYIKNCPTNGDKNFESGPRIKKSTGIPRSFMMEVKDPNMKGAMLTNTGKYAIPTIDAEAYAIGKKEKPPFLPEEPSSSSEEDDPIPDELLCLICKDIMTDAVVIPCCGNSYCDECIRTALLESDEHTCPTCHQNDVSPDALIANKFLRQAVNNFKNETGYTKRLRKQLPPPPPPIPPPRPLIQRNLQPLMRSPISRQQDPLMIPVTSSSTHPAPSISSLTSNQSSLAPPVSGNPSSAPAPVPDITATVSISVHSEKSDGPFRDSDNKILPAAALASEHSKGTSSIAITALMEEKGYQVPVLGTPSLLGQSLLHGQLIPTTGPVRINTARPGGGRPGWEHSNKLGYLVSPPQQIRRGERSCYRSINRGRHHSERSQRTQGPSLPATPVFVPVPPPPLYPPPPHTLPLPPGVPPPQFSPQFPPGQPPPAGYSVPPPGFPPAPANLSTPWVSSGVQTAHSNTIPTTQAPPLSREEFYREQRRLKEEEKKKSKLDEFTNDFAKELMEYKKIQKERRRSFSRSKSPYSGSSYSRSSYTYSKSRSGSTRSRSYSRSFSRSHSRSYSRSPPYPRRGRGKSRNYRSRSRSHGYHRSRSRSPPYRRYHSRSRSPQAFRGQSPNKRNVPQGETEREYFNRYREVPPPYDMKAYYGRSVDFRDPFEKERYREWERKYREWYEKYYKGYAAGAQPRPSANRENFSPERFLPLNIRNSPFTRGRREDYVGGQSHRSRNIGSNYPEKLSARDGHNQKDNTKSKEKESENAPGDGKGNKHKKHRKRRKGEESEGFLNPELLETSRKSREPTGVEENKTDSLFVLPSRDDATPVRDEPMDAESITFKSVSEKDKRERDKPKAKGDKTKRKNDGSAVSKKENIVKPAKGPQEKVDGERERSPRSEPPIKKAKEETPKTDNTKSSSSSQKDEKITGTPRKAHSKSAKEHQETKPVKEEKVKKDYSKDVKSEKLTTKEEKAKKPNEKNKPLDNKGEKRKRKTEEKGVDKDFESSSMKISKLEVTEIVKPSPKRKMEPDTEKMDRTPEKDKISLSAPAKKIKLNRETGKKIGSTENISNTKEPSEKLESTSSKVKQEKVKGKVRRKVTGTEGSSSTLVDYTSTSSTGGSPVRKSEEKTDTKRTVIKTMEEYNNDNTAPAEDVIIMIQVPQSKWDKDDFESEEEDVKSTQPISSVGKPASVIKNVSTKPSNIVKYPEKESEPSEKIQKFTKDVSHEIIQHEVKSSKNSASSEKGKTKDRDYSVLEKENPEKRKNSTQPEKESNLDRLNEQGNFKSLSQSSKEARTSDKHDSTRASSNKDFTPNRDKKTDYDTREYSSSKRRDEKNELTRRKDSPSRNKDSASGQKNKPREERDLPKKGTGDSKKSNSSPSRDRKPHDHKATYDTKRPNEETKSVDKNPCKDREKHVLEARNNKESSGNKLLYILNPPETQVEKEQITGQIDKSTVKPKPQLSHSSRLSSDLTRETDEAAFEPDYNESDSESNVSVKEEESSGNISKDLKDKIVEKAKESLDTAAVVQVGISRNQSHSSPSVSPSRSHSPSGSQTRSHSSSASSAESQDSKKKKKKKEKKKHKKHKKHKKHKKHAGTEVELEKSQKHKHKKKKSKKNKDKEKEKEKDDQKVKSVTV
UniProt Q9Y256: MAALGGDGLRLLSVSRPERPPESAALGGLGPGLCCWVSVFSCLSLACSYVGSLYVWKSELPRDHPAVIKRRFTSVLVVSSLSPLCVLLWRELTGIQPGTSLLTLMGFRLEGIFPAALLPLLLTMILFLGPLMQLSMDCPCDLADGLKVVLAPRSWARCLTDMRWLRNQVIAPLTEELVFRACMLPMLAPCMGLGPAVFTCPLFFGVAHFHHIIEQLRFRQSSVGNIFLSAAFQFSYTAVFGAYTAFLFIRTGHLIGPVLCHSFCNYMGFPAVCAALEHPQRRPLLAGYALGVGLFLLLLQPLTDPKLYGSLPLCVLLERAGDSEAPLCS
UniProt Q8TDY2, whole entry, looked up: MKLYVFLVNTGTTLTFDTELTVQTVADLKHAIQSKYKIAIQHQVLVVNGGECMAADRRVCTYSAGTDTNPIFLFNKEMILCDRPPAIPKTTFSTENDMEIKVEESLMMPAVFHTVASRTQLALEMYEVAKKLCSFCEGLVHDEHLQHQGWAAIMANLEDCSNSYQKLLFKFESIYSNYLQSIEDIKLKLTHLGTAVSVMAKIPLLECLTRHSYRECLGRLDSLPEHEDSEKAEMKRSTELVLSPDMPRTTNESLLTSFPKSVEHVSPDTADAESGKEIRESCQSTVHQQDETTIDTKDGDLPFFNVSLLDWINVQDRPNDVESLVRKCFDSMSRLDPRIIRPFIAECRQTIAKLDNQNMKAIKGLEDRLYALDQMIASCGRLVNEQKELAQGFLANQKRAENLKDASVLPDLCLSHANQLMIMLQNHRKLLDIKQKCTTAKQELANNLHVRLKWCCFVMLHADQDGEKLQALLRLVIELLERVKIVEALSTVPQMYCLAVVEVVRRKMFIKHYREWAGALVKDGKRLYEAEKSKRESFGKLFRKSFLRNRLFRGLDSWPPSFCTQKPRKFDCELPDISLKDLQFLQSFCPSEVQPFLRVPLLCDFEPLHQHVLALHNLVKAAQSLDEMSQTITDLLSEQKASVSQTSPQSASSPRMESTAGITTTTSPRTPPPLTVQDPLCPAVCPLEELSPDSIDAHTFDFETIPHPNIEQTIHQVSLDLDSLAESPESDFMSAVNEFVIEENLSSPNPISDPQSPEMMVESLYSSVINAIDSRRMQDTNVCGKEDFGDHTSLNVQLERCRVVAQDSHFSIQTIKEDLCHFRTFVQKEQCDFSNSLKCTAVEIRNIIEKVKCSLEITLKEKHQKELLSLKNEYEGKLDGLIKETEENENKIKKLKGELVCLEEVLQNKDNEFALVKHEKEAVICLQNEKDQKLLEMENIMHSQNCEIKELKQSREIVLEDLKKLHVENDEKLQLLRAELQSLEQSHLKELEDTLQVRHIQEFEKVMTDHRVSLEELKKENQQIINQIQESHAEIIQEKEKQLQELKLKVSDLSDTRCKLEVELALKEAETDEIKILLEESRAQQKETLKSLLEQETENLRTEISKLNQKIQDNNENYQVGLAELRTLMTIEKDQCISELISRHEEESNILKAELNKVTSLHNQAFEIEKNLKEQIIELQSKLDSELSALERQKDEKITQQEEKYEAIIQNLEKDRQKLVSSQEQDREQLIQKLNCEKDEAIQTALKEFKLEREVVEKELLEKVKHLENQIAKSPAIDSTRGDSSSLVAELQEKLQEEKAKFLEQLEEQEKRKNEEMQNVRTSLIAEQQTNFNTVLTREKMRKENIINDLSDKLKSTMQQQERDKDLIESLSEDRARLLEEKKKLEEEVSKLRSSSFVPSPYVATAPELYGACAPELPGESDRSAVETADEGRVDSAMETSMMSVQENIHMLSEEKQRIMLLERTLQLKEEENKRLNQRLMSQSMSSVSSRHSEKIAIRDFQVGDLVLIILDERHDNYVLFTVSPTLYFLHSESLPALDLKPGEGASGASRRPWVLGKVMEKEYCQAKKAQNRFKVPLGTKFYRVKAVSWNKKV
UniProt Q8TAC1: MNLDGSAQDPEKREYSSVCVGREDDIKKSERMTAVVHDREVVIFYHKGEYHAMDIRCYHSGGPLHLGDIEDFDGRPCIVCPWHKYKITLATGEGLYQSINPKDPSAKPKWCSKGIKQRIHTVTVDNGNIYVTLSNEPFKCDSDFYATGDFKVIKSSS
UniProt Q9H4X1: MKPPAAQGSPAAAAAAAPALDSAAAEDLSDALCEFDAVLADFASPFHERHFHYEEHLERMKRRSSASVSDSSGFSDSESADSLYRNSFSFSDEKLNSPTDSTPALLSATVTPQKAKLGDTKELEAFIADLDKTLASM
UniProt Q96E39: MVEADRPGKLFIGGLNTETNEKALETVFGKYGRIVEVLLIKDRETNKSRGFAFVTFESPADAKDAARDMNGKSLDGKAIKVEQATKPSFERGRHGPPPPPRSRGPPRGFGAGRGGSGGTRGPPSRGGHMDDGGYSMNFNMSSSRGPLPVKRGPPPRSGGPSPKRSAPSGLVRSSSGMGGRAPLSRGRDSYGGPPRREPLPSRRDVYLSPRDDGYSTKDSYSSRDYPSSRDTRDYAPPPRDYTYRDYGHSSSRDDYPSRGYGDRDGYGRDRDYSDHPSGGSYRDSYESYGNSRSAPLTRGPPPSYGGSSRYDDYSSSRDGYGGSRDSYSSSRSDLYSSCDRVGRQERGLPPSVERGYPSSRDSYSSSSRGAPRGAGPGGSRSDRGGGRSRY
UniProt Q6NUK4: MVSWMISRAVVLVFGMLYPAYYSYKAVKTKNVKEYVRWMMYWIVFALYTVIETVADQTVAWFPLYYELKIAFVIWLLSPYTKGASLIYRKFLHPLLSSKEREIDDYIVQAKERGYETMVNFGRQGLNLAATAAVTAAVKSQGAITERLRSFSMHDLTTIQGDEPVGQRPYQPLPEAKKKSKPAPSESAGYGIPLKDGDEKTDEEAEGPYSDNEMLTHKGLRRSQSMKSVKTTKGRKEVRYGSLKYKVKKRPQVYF
UniProt P49795: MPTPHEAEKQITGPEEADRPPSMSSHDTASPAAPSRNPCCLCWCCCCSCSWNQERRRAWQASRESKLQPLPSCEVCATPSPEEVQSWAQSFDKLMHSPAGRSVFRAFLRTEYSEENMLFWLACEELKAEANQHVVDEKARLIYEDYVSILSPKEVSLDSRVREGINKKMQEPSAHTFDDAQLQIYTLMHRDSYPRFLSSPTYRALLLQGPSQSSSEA
UniProt Q8TEB9: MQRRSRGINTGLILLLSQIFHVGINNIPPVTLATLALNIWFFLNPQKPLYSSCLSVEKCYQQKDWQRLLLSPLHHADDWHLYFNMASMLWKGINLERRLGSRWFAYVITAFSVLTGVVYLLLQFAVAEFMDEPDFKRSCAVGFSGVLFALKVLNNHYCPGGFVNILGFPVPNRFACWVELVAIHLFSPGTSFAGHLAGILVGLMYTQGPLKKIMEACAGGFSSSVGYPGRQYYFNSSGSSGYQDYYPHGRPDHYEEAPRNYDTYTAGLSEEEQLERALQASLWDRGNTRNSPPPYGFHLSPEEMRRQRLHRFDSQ
UniProt Q9H0Z9: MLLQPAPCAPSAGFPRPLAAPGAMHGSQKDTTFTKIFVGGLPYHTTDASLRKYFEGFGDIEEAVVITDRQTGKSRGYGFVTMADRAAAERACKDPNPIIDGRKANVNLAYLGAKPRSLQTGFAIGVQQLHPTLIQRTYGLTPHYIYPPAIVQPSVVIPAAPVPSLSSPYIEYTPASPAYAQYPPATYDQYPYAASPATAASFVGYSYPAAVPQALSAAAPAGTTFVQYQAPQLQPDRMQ

How the values were obtained:
Experiment in all cases: log2 fold change, soluble protein after heating vs DMSO (PISA); higher = thermal stabilisation; K562 lysate, 10 uM; active = over 0.2 and 3.5 SD of the protein, either way, in both replicates (recomputed)
[1] = compound: C1=CC=C(C=C1)[C@H](COC2=CC3=C(C=C2)NC(=O)N3)NC(=O)C4=CC=CN(C4=O)CC5=CC(=C(C=C5)F)F
Procedure, shortened: (§1)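 Log-two fold change in thermal stability relative to solvent controls is reported from duplicates. For each sample, crude K562 extract from dounce-homogenised pellets in PBS pH 7.4 with 1 mM MgCl2, at 1 mg/mL protein, was treated with 10 μM compound for 30 min. Aliquots heated for 3 min across 48°C-58°C were pooled, brought to 0.5% NP-40 at 4°C and cleared at 21,000xg for 90 min. The supernatant was quantified by TMTpro 16plex LC-MS/MS with channel sums equalised.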

[2] = compound: CC1=C(SC2=C1C(=N[C@H](C3=NN=C(N32)C)CC(=O)N)C4=CC=C(C=C4)Cl)C
Procedure, shortened: as §1

[3] = compound: CC1=C2C(=CC=C1)N=C(N(C2=O)C3=CC=CC=C3C)CN4C=NC5=C(N=CN=C54)N
Procedure, shortened: as §1

[4] = compound: Cc1sc2c(c1C)C(c1ccc(Cl)cc1)=N[C@@H](CC(=O)OC(C)(C)C)c1nnc(C)n1-2
Procedure, shortened: as §1

[5] = compound: c1ccc([C@@H]2C[C@H]2NC2CCNCC2)cc1
Procedure, shortened: as §1

Measured: log2 fold change

REXO5 (UniProt Q96IC2)
inactive: [1] -0.01 | [2] 0.032 | [3] 0.04 | [4] 0.039 | [5] 0.091

RBBP6 (UniProt Q7Z6E9)
inactive: [1] -0.009 | [2] -0.013 | [3] 0.047 | [4] 0.028 | [5] 0.01

RCE1 (UniProt Q9Y256)
inactive: [1] -0.253 | [2] 0.103 | [3] 0.012 | [4] 0.062 | [5] 0.146

RB1CC1 (UniProt Q8TDY2)
inactive: [1] 0.011 | [2] 0.02 | [3] 0.024 | [4] -0.041 | [5] -0.038

RFESD isoform 2 (UniProt Q8TAC1)
inactive: [1] 0.006 | [2] -0.015 | [3] 0.048 | [4] -0.064 | [5] -0.089

RGCC (UniProt Q9H4X1)
inactive: [3] 0.023 | [5] 0.027

RBMXL1 (UniProt Q96E39)
inactive: [3] 0.071 | [4] -0.182

REEP3 (UniProt Q6NUK4)
inactive: [1] -0.003 | [2] -0.019 | [3] 0.07 | [5] -0.061

RGS19 (UniProt P49795)
inactive: [5] 0.082

RHBDD1 (UniProt Q8TEB9)
inactive: [1] -0.032 | [2] 0.058 | [3] -0.117 | [5] 0.039

RBM38 (UniProt Q9H0Z9)
inactive: [3] 0.07 | [4] 0.007 | [5] -0.066
